Assay results: the supplement of paper PMC8728848
Some of the results follow.

Experiments:
Assay in all cases: glycan array binding signal (z-score within array); higher = stronger binding
Conditions in all cases: glycan notation: IUPAC condensed, linker removed
Glc(b1-4)Glc = target: Glc(b1-4)Glc
Outline: (§1)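 Arrays were curated from the Consortium for Functional Glycomics database, 3228 in total, and kept only where the protein sequence was available. Binding is expressed as a within-array Z-score. This score was averaged across arrays of the same protein sequence at different concentrations or buffers and across linkers, and negative values can be read as non-binding.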

Glc(b1-6)Glc = target: Glc(b1-6)Glc
Outline: as §1

GlcA(b1-3)Gal = target: GlcA(b1-3)Gal
Outline: as §1

GlcA(b1-3)GlcNAc = target: GlcA(b1-3)GlcNAc
Outline: as §1

GlcA(b1-6)Gal = target: GlcA(b1-6)Gal
Outline: as §1

[1] = target: GlcA3S(b1-3)Gal(b1-4)GlcNAc(b1-2)Man
Outline: as §1

[2] = target: GlcA3S(b1-3)Gal(b1-4)GlcNAc(b1-3)Gal(b1-4)Glc
Outline: as §1

[3] = target: GlcNAc(a1-3)Gal(b1-4)GlcNAc
Outline: as §1

[4] = target: GlcNAc(a1-4)Gal(b1-3)GlcNAc
Outline: as §1

[5] = target: GlcNAc(a1-4)Gal(b1-4)GalNAc
Outline: as §1

[6] = target: GlcNAc(a1-4)Gal(b1-4)GlcNAc
Outline: as §1

[7] = target: GlcNAc(a1-4)Gal(b1-4)GlcNAc(b1-3)Gal(b1-4)Glc
Outline: as §1

[8] = target: GlcNAc(a1-4)Gal(b1-4)GlcNAc(b1-3)Gal(b1-4)GlcNAc
Outline: as §1

[9] = target: GlcNAc(a1-4)Gal(b1-4)GlcNAc(b1-3)Gal(b1-4)GlcNAc(b1-3)Gal(b1-4)GlcNAc
Outline: as §1

[10] = target: GlcNAc(a1-4)Gal(b1-4)GlcNAc(b1-3)Gal(b1-4)[Fuc(a1-3)]GlcNAc(b1-3)Gal(b1-4)[Fuc(a1-3)]GlcNAc
Outline: as §1

[11] = target: GlcNAc(a1-6)Gal(b1-4)GlcNAc
Outline: as §1

[12] = target: GlcNAc(b1-2)Gal(b1-3)GalNAc
Outline: as §1

[13] = target: GlcNAc(b1-2)Man(a1-3)[GlcNAc(b1-2)Man(a1-6)]Man(b1-4)GlcNAc(b1-4)GlcNAc
Outline: as §1

[14] = target: GlcNAc(b1-2)Man(a1-3)[GlcNAc(b1-2)Man(a1-6)]Man(b1-4)GlcNAc(b1-4)[Fuc(a1-6)]GlcNAc
Outline: as §1

[15] = target: GlcNAc(b1-2)Man(a1-3)[GlcNAc(b1-4)][GlcNAc(b1-2)Man(a1-6)]Man(b1-4)GlcNAc(b1-4)GlcNAc
Outline: as §1

[16] = target: GlcNAc(b1-2)Man(a1-3)[GlcNAc(b1-4)][GlcNAc(b1-2)Man(a1-6)]Man(b1-4)GlcNAc(b1-4)[Fuc(a1-6)]GlcNAc
Outline: as §1

[17] = target: GlcNAc(b1-2)[GlcNAc(b1-4)]Man(a1-3)[GlcNAc(b1-2)Man(a1-6)]Man(b1-4)GlcNAc(b1-4)GlcNAc
Outline: as §1

[18] = target: GlcNAc(b1-2)[GlcNAc(b1-4)]Man(a1-3)[GlcNAc(b1-4)][GlcNAc(b1-2)Man(a1-6)]Man(b1-4)GlcNAc(b1-4)GlcNAc
Outline: as §1

[19] = target: GlcNAc(b1-2)[GlcNAc(b1-4)]Man(a1-3)[GlcNAc(b1-4)][GlcNAc(b1-2)[GlcNAc(b1-6)]Man(a1-6)]Man(b1-4)GlcNAc(b1-4)GlcNAc
Outline: as §1

[20] = target: GlcNAc(b1-2)[GlcNAc(b1-4)]Man(a1-3)[GlcNAc(b1-4)][GlcNAc(b1-2)[GlcNAc(b1-6)]Man(a1-6)]Man(b1-4)GlcNAc(b1-4)[Fuc(a1-6)]GlcNAc
Outline: as §1

[21] = target: GlcNAc(b1-2)[GlcNAc(b1-6)]Man(a1-6)[GlcNAc(b1-2)Man(a1-3)]Man(b1-4)GlcNAc(b1-4)GlcNAc
Outline: as §1

[22] = target: GlcNAc(b1-2)[GlcNAc(b1-6)]Man(a1-6)[GlcNAc(b1-2)Man(a1-3)]Man(b1-4)GlcNAc(b1-4)[Fuc(a1-6)]GlcNAc
Outline: as §1

[23] = target: GlcNAc(b1-2)[GlcNAc(b1-6)]Man(a1-6)[GlcNAc(b1-4)][GlcNAc(b1-2)Man(a1-3)]Man(b1-4)GlcNAc(b1-4)GlcNAc
Outline: as §1

GlcNAc(b1-3)Fuc = target: GlcNAc(b1-3)Fuc
Outline: as §1

GlcNAc(b1-3)Gal = target: GlcNAc(b1-3)Gal
Outline: as §1

[24] = target: GlcNAc(b1-3)Gal(b1-3)GalNAc
Outline: as §1

GlcNAc(b1-3)Gal(b1-4)Glc = target: GlcNAc(b1-3)Gal(b1-4)Glc
Outline: as §1

[25] = target: GlcNAc(b1-3)Gal(b1-4)GlcNAc
Outline: as §1

[26] = target: GlcNAc(b1-3)Gal(b1-4)GlcNAc(b1-2)Man(a1-3)[GlcNAc(b1-3)Gal(b1-4)GlcNAc(b1-2)Man(a1-6)]Man(b1-4)GlcNAc(b1-4)GlcNAc
Outline: as §1

[27] = target: GlcNAc(b1-3)Gal(b1-4)GlcNAc(b1-2)Man(a1-3)[GlcNAc(b1-3)Gal(b1-4)GlcNAc(b1-2)Man(a1-6)]Man(b1-4)GlcNAc(b1-4)[Fuc(a1-6)]GlcNAc
Outline: as §1

[28] = target: GlcNAc(b1-3)Gal(b1-4)GlcNAc(b1-2)[GlcNAc(b1-3)Gal(b1-4)GlcNAc(b1-6)]Man(a1-6)[GlcNAc(b1-3)Gal(b1-4)GlcNAc(b1-2)Man(a1-3)]Man(b1-4)GlcNAc(b1-4)GlcNAc
Outline: as §1

[29] = target: GlcNAc(b1-3)Gal(b1-4)GlcNAc(b1-3)Gal(b1-4)GlcNAc
Outline: as §1

[30] = target: GlcNAc(b1-3)Gal(b1-4)GlcNAc(b1-3)Gal(b1-4)GlcNAc(b1-2)Man(a1-3)[GlcNAc(b1-3)Gal(b1-4)GlcNAc(b1-3)Gal(b1-4)GlcNAc(b1-2)Man(a1-6)]Man(b1-4)GlcNAc(b1-4)GlcNAc
Outline: as §1

[31] = target: GlcNAc(b1-3)Gal(b1-4)GlcNAc(b1-3)Gal(b1-4)GlcNAc(b1-2)Man(a1-3)[GlcNAc(b1-3)Gal(b1-4)GlcNAc(b1-3)Gal(b1-4)GlcNAc(b1-2)Man(a1-6)]Man(b1-4)GlcNAc(b1-4)[Fuc(a1-6)]GlcNAc
Outline: as §1

[32] = target: GlcNAc(b1-3)Gal(b1-4)GlcNAc(b1-3)Gal(b1-4)GlcNAc(b1-2)[GlcNAc(b1-3)Gal(b1-4)GlcNAc(b1-3)Gal(b1-4)GlcNAc(b1-6)]Man(a1-6)[GlcNAc(b1-3)Gal(b1-4)GlcNAc(b1-3)Gal(b1-4)GlcNAc(b1-2)Man(a1-3)]Man(b1-4)GlcNAc(b1-4)[Fuc(a1-6)]GlcNAc
Outline: as §1

[33] = target: GlcNAc(b1-3)Gal(b1-4)GlcNAc(b1-3)Gal(b1-4)GlcNAc(b1-3)Gal(b1-4)GlcNAc(b1-2)Man(a1-3)[GlcNAc(b1-3)Gal(b1-4)GlcNAc(b1-3)Gal(b1-4)GlcNAc(b1-3)Gal(b1-4)GlcNAc(b1-2)Man(a1-6)]Man(b1-4)GlcNAc(b1-4)GlcNAc
Outline: as §1

[34] = target: GlcNAc(b1-3)Gal(b1-4)GlcNAc(b1-3)Gal(b1-4)GlcNAc(b1-3)Gal(b1-4)GlcNAc(b1-2)Man(a1-3)[GlcNAc(b1-3)Gal(b1-4)GlcNAc(b1-3)Gal(b1-4)GlcNAc(b1-3)Gal(b1-4)GlcNAc(b1-2)Man(a1-6)]Man(b1-4)GlcNAc(b1-4)[Fuc(a1-6)]GlcNAc
Outline: as §1

[35] = target: GlcNAc(b1-3)Gal(b1-4)GlcNAc(b1-3)Gal(b1-4)GlcNAc(b1-3)Gal(b1-4)GlcNAc(b1-2)[GlcNAc(b1-3)Gal(b1-4)GlcNAc(b1-3)Gal(b1-4)GlcNAc(b1-3)Gal(b1-4)GlcNAc(b1-6)]Man(a1-6)[GlcNAc(b1-3)Gal(b1-4)GlcNAc(b1-3)Gal(b1-4)GlcNAc(b1-3)Gal(b1-4)GlcNAc(b1-2)Man(a1-3)]Man(b1-4)GlcNAc(b1-4)[Fuc(a1-6)]GlcNAc
Outline: as §1

[36] = target: GlcNAc(b1-3)Gal(b1-4)GlcNAc(b1-3)Gal(b1-4)GlcNAc(b1-3)Gal(b1-4)GlcNAc(b1-3)Gal(b1-4)GlcNAc(b1-2)Man(a1-3)[GlcNAc(b1-3)Gal(b1-4)GlcNAc(b1-3)Gal(b1-4)GlcNAc(b1-3)Gal(b1-4)GlcNAc(b1-3)Gal(b1-4)GlcNAc(b1-2)Man(a1-6)]Man(b1-4)GlcNAc(b1-4)GlcNAc
Outline: as §1

[37] = target: GlcNAc(b1-3)Gal(b1-4)GlcNAc(b1-3)Gal(b1-4)GlcNAc(b1-3)Gal(b1-4)GlcNAc(b1-3)Gal(b1-4)GlcNAc(b1-2)Man(a1-3)[GlcNAc(b1-3)Gal(b1-4)GlcNAc(b1-3)Gal(b1-4)GlcNAc(b1-3)Gal(b1-4)GlcNAc(b1-3)Gal(b1-4)GlcNAc(b1-2)Man(a1-6)]Man(b1-4)GlcNAc(b1-4)[Fuc(a1-6)]GlcNAc
Outline: as §1

B1: MUB70 (Lactobacillus reuteri) (protein)
chain: CVHVQYIDGETDQMLRQDDLDGYTDETIPYSTAEGIKKFEGDGYELFKDNFPAGEKFDNDDTNDQFYTVIF
With B1 the “glycan array binding signal (z-score)” value (Glc(b1-4)Glc) was -0.187, the “glycan array binding signal (z-score)” value (Glc(b1-6)Glc) was -0.894 and the “glycan array binding signal (z-score)” value (GlcA(b1-3)Gal) was -0.592. For the same binder, the “glycan array binding signal (z-score)” value (GlcA(b1-3)GlcNAc) was 0.075, the “glycan array binding signal (z-score)” value (GlcA(b1-6)Gal) was -0.677 and the “glycan array binding signal (z-score)” value [1] was 0.326. The “glycan array binding signal (z-score)” value [2] was -0.095, the “glycan array binding signal (z-score)” value [3] was -0.153 and the “glycan array binding signal (z-score)” value [4] was -0.209. The “glycan array binding signal (z-score)” value [5] was -0.747, the “glycan array binding signal (z-score)” value [6] was -0.149 and the “glycan array binding signal (z-score)” value [7] was 0.325. The “glycan array binding signal (z-score)” value [8] was 0.39, the “glycan array binding signal (z-score)” value [9] was -0.705 and the “glycan array binding signal (z-score)” value [10] was -0.45. The “glycan array binding signal (z-score)” value [11] was -0.107, the “glycan array binding signal (z-score)” value [12] was -0.21 and the “glycan array binding signal (z-score)” value [13] was -0.497. The “glycan array binding signal (z-score)” value [14] was -0.609, the “glycan array binding signal (z-score)” value [15] was 0.036 and the “glycan array binding signal (z-score)” value [16] was 0.5. For the same binder, the “glycan array binding signal (z-score)” value [17] was 0.353, the “glycan array binding signal (z-score)” value [18] was 0.655 and the “glycan array binding signal (z-score)” value [19] was 0.034. For the same binder, the “glycan array binding signal (z-score)” value [20] was 0.481, the “glycan array binding signal (z-score)” value [21] was -0.641 and the “glycan array binding signal (z-score)” value [22] was 0.001. The “glycan array binding signal (z-score)” value [23] was -0.216, the “glycan array binding signal (z-score)” value (GlcNAc(b1-3)Fuc) was 0.101 and the “glycan array binding signal (z-score)” value (GlcNAc(b1-3)Gal) was -0.757. The “glycan array binding signal (z-score)” value [24] was -0.359, the “glycan array binding signal (z-score)” value (GlcNAc(b1-3)Gal(b1-4)Glc) was -0.483 and the “glycan array binding signal (z-score)” value [25] was -0.453. For the same binder, the “glycan array binding signal (z-score)” value [26] was -0.049, the “glycan array binding signal (z-score)” value [27] was 1.11 and the “glycan array binding signal (z-score)” value [28] was -0.032. The “glycan array binding signal (z-score)” value [29] was -0.485, the “glycan array binding signal (z-score)” value [30] was 2.17 and the “glycan array binding signal (z-score)” value [31] was 0.956. The “glycan array binding signal (z-score)” value [32] was 0.962, the “glycan array binding signal (z-score)” value [33] was 1.75 and the “glycan array binding signal (z-score)” value [34] was 0.974. The “glycan array binding signal (z-score)” value [35] was 0.94, the “glycan array binding signal (z-score)” value [36] was 0.142 and the “glycan array binding signal (z-score)” value [37] was 0.523.
